Assay results: patent US20160343958A1, “ORGANIC TRANSISTOR, COMPOUND, ORGANIC SEMICONDUCTOR MATERIAL FOR NON-LIGHT-EMITTING ORGANIC SEMICONDUCTOR DEVICE, MATERIAL FOR ORGANIC TRANSISTOR, COATING SOLUTION FOR NON-LIGHT-EMITTING ORGANIC SEMICONDUCTOR DEVICE, AND ORGANIC SEMICONDUCTOR FILM FOR NON-LIGHT-EMITTING ORGANIC SEMICONDUCTOR DEVICE” (FUJIFILM Corporation, priority 2014, published 2016)
Some of these results come from one statement about several compounds together.

Assay: Solubility in toluene
Type: physicochemical
Conditions: heated to 100° C., left 30 minutes at room temperature, result in words
Protocol: Each of the compounds of the present invention or comparative compounds (2% by mass, 1% by mass, 0.5% by mass, or 0.1% by mass each) was mixed with toluene (1 mL), heated to 100° C., and then left to stand for 30 minutes at room temperature. […] For practical use, the compound needs to be evaluated to be A, B, C, or D. The compound preferably needs to be evaluated to be A, B, or C, more preferably needs to be evaluated to be A or B, and particularly preferably needs to be evaluated to be A.
E: Precipitation occurred at 0.1% by mass.
With `c1ccc2c(c1)sc1c2ccc2c3ccccc3sc21` [comparative compound 1, reference compound] the “solubility in an organic solvent” value was “poor solubility”.
For `Cc1ccc2c(c1)sc1c2ccc2c3ccc(C)cc3sc21` [comparative compound 2, reference compound], the “solubility in an organic solvent” value was “poor solubility”.
With `c1ccc(-c2ccc3sc4c5sc6ccc(-c7ccccc7)cc6c5c(-c5ccccc5)c(-c5ccccc5)c4c3c2)cc1` [compound 4, reference compound] the “solubility in an organic solvent” value was “poor solubility”.
